The results in this text go back to PMC12643531.

The chains behind the UniProt entries cited, without tags or fusion partners.
UniProt P35631: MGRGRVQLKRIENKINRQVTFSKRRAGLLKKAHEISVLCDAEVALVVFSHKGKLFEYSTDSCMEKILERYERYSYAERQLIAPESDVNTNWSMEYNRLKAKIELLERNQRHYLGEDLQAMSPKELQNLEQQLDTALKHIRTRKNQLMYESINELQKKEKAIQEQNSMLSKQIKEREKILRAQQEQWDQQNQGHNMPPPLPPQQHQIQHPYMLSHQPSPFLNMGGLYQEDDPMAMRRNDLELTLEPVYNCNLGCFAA

The target in test [1] is APETALA1 (AP1), in vitro translated (Arabidopsis thaliana) (UniProt P35631). Description: co-IP; in vitro: proteins co-synthesized in one tube in wheat germ extract with biotinylated lysine; AP1 or SEP3 as bait precipitated with AP1 or SEP3 antibodies, Protein A MicroBeads, 4°C; Western blot with Streptavidin-Alkaline Phosphatase.
Test [2] has as its target …3 (SEP3), in vitro translated (Arabidopsis thaliana) (UniProt O22456). The description is as above.

These are yes or no findings as the source states them, for the method shown. In cells and extracts the contact can be indirect. Some binding calls cover weakened binding; strength is not graded here.

B1: LEUNIG_HOMOLOG (LUH), in vitro translated (protein, UniProt O48847 1-787)
chain: MAQSNWEADKMLDVYIYDYLVKKKLHNTAKSFMTEGKVSPDPVAIDAPGGFLFEWWSVFWDIFIARTNEKHSEAAAAYIEAQQGKAKEQQMQIQQLQMMRQAQMQRRDPNHPSLGGPMNAIGSEGMIGQSNASALAAKMYEERMKQPNPMNSETSQPHLDARMALLKSATNHHGQIVQGNHQGGVSAALQQIQSRTQQPTEIKTEVNLGTSPRQLPVDPSTVYGQGILQSKPGMGSAGLNPGVSGLPLKGWPLTGIEQMRPGLGGPQVQKSFLQNQSQFQLSPQQQQHQMLAQVQAQGNMTNSPMYGGDMDPRRFTGLPRGNLNPKDGQQNANDGSIGSPMQSSSSKHISMPPVQQSSSQQQDHLLSQQSQQNNRKRKGPSSSGPANSTGTGNTVGPSNSQPSTPSTHTPVDGVAIAGNMHHVNSMPKGPMMYGSDGIGGLASSANQLLQDDMDQFGDVGALEDNVESFLSQDDGDGGSLFGTLKRNSSVHTETSKPFSFNEVSCIRKSASKVICCSFSYDGKLLASAGHDKKVFIWNMETLQVESTPEEHAHIITDVRFRPNSTQLATSSFDKTIKIWDASDPGYFLRTISGHAAPVMSIDFHPKKTELLCSCDSNNDIRFWDINASCVRAVKGASTQVRFQPRTGQFLAAASENTVSIFDIENNNKRVNIFKGHSSNVHSVCWSPNGELVASVSEDAVKLWSLSSGDCIHELSNSGNKFHSVVFHPSYPDLLVIGGYQAIELWNTMENKCMTVAGHECVISALAQSPSTGVVASASHDKSVKIWK
modifications: biotinylated lysine residues (Transcend tRNA)
With B1, the binding result in test [1] and in test [2] was “binds” each time.
